PubChem BioAssay AID1347076 (National Center for Advancing Translational Sciences (NCATS), 2019)
Values joined by “and” are separate entries in the source; they are usually repeats but may differ in a detail not shown here. Equal values may be shown once. Out of some 400,000 compounds screened, about 13,000 (3.2%) were called active. The inconclusive results got no clear call from the source; some entries with a clear call stand among them for comparison. Calls follow the shape of the dose curve; as a rule, active = well fitted cell-killing curve with a large enough effect; inconclusive = small, poorly fitted or top-dose-only effect, or effect the other way; inactive = flat fitted curve, though single readings scatter. A potency beside an inconclusive call is a rough fit, not a confirmed value.

Assay: qHTS assay for MDR1-selective chemotherapeutics: Primary screen using the drug-selected MDR subline cells KB-V1; also: nearly all actives have a fitted effect of over 60% in size
Conditions: KB-V1 MDR cells viability, CellTiter-Glo, 72 h; activity change, negative = cytotoxicity: at 46.1 µM (top of the series)
Procedure, shortened: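 Cytotoxicity via CellTiter-Glo luminescence after 72 h compound exposure at 37 degrees C. Cells: drug-selected KB-V1 line, DMEM phenol-red free plus 10% FBS. Compounds tested at multiple concentrations; normalized data fitted to concentration-effect curves.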
% is scaled to controls: 0 for no effect and ±100 for the full control effect; potency is read from the fitted curve at half-maximal effect.

| Structure (SMILES) | activity change, negative = cytotoxicity | Potency |
| --- | --- | --- |
| Clc1ccc(SCCCN2CCCCC2)cc1 | inactive: -13.4% | – |
| CCc1nnc(SCc2cn3c(C)cc(C)nc3n2)n1N | – | inconclusive: 7.31 µM [rising, partial curve, poor fit] |
| O=C1c2ccccc2NC(c2ccccc2OCc2ccccc2)N1Cc1ccco1 (stereo not given) | – | inconclusive: 20.6 µM [cytotoxic, single point] |
| Cc1cc(-n2c(C)nc3ccccc3c2=O)ccc1NC(=O)c1ccc([N+](=O)[O-])cc1 | inactive: -7.99% | – |
| Cc1onc(-c2c(Cl)cccc2Cl)c1CO/N=C(\C#N)c1c(Cl)cccc1Cl | – | inconclusive: 29.1 µM [cytotoxic, single point] |
| CCN(CC)CCNCc1cc(Cl)ccc1OCc1ccccc1F | – | inconclusive: 10.3 µM [cytotoxic, partial curve] |
| CCc1ccc(NS(=O)(=O)c2ccc3oc(=O)ccc3c2)cc1 | – | inconclusive: 14.6 µM [cytotoxic, single point] |
| COc1cccc(NC(=O)CSc2nnc(C)s2)c1 | – | inconclusive: 13 µM [rising, partial curve, poor fit] |
| CCCCc1ccc(NC(=S)N2CCCC2)cc1 | inactive: 0% | – |
| CSCC[C@H](NC(=O)c1cccc([N+](=O)[O-])c1C)c1nc2ccccc2[nH]1 | – | active: 16.4 µM |
| CN1C(=O)N(CC(=O)Nc2ccc3c(c2)OCO3)C(=O)C12CCCCC2 | inactive: 3.61% | – |
| Cc1noc(C)c1COC(=O)c1ccccc1Sc1ccccc1C#N | – | inconclusive: 11.6 µM [cytotoxic, partial curve] |
| COc1ccccc1OCC(=O)N/N=C(\C)c1ccc2ccccc2c1 | – | inconclusive: 23.1 µM [cytotoxic, single point] |
| CCC(Sc1nc2ncccc2[nH]1)C(=O)N1CCOCC1 (stereo not given) | inactive: 9.73% | – |
| CN(c1ccccc1)S(=O)(=O)c1ccc(NC(=O)CC(=O)c2ccccc2)cc1 | inactive: -4.8% | – |
| COc1ccc(NC(=O)CSc2nc3sc4c(c3c(=O)n2-c2ccc(OC)cc2)CCN(C)C4)cc1 | – | inconclusive: 0.731 µM [rising, full curve, poor fit] |
| CCC(Oc1ccccc1)C(=O)OCC(=O)Nc1c(C)nn(-c2ccccc2)c1C (stereo not given) | inactive: 19.3% | – |
| CC(=O)N1c2ccc(S(=O)(=O)N(C)Cc3ccccc3)cc2CC1C (stereo not given) | – | inconclusive: 20.6 µM [cytotoxic, single point] |
| COc1ccc(-c2nc3c(C)cc(Br)cn3c2Cc2cccc(Cl)c2)cc1OC | – | inconclusive: 29.1 µM [cytotoxic, single point] |
| S=C(NCc1cccs1)Nc1ccccc1Cl | – | active: 25.9 µM |
| CC1=C(C(=O)N2CCOCC2)CC(CC(=O)NC(c2ccccc2)c2ccccc2)C(=O)N1Cc1ccc(F)cc1 (stereo not given) | inactive: -3.83% | – |
| COc1ccccc1C(=O)Nc1ccc(OCc2cc(=O)n3cc(C)sc3n2)cc1 | – | inconclusive: 20.6 µM [rising, single point] |
| C#CCNC(=O)C[C@@H]1C[C@@]2(C(=O)OCC)CCC=C2N(Cc2ccc(Cl)cc2Cl)C1=O | – | inconclusive: 9.2 µM [cytotoxic, partial curve] |

| Structure (SMILES) | activity change, negative = cytotoxicity | Potency |
| --- | --- | --- |
| COc1cc(NS(=O)(=O)c2ccc(N/C=C\C(=O)c3ccc(OC)c(OC)c3)cc2)nc(OC)n1 | – | inconclusive: 20.6 µM [cytotoxic, single point] |
| COc1ccc(-c2nnc(SCC(=O)c3cccs3)o2)cc1 | inactive: 0% | – |
| CC1=NN(c2ccccc2)C(=O)C1C(=O)C(=O)Nc1ccc(F)cc1 (stereo not given) | inactive: 0.77% | – |
| COc1ccc(S(=O)(=O)N2CCCCCC2)cc1C(=O)N(C)Cc1c(F)cccc1Cl | inactive: -6.18% | – |
| Cn1c(=O)c2c(nc(Oc3ccccc3Cl)n2C)n(C)c1=O | – | inconclusive: 18.4 µM [cytotoxic, single point] |
| Fc1ccccc1/C=N/Nc1nc(N2CCCCC2)nc(N2CCCCC2)n1 | – | inconclusive: 29.1 µM [rising, single point] |
| COCCNC(=S)NNC(=O)CSCc1ccc(Cl)cc1Cl | – | inconclusive: 20.6 µM [cytotoxic, single point] |
| O=C1OC(Nc2nc(-c3ccc(F)cc3)cs2)c2ccccc21 (stereo not given) | – | inconclusive: 25.9 µM [cytotoxic, partial curve, poor fit] |
| COc1ccccc1C(=O)NC(CCSC)C(=O)NCc1ccncc1 (stereo not given) | – | inconclusive: 20.6 µM [cytotoxic, single point] |
| O=C1/C(=C/c2c[nH]c3ccccc23)CCC/C1=C\c1c[nH]c2ccccc12 | – | inconclusive: 29.1 µM [cytotoxic, single point] |
| Fc1ccc(-c2noc(-c3ccc4c(c3)CCO4)n2)cc1 | – | inconclusive: 23.1 µM [cytotoxic, partial curve, poor fit] |
| Cc1ccc2[nH]c(=O)c3cc(C(=O)NCCc4ccc(Cl)cc4)sc3c2c1 | inactive: -9.38% | – |
| CCCC(=O)Nc1cc(-c2nn(C)c(=O)c3ccccc23)ccc1OC | – | inconclusive: 16.4 µM [cytotoxic, partial curve] |
| O=C(Nc1ccc(Br)cc1)c1cccc(N2C(=O)C3C4CCC(C4)C3C2=O)c1 (stereo not given) | – | inconclusive: 18.4 µM [cytotoxic, single point] |
| CCn1c2ccccc2c2cc(/C=C3\C=Cc4ccccc43)ccc21 | inactive: 56.3% | – |
| COCCCNC(=S)N/N=C/c1cccc(OC)c1O | – | inconclusive: 20.6 µM [cytotoxic, partial curve] |
| COC(=O)C1(C(=O)OC)C[C@H](c2ccc(OC)cc2)N(Cc2ccccc2OC)[C@@H]1c1cccs1 | – | inconclusive: 14.6 µM [cytotoxic, partial curve] and inconclusive: 13 µM [cytotoxic, partial curve] |
| COCCNC(=S)N/N=C/c1ccccc1C(=O)O | inactive: 15.2% | – |
| CNS(=O)(=O)c1cccc(C(=O)OCC(=O)/C=C2/N(C)c3ccccc3C2(C)C)c1 | inactive: -2.53% | – |
| O=C(COC(=O)c1cc(S(=O)(=O)N2CCOCC2)ccc1Cl)NCCc1ccccc1 | – | inconclusive: 20.6 µM [rising, single point] |
| CN(C)CCNc1c2c(nc3ccccc13)CCC2 | inactive: -2.49% | – |
| COc1ccc(/C=N/Nc2ncnc3sc4c(c23)CCCC4)cc1OC | – | inconclusive: 10.3 µM [cytotoxic, partial curve, poor fit] |
